From the supplement of paper PMC10849652
The other results are listed elsewhere or left out.

Chains of the proteins cited; added tags and fusions are not shown. Lines headed by an entry give the natural chain unless they say otherwise; changes in a name come on top.
UniProt A5D8V6: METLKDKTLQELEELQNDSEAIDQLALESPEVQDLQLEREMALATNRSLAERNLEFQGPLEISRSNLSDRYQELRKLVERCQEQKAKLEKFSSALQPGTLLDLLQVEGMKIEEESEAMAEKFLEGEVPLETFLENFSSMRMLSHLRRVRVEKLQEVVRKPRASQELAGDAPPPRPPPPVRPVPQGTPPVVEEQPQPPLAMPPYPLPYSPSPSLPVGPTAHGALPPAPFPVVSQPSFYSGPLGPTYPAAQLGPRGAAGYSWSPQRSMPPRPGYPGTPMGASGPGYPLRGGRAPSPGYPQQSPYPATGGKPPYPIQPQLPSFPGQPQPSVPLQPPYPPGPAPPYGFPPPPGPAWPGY
UniProt Q8TBZ3: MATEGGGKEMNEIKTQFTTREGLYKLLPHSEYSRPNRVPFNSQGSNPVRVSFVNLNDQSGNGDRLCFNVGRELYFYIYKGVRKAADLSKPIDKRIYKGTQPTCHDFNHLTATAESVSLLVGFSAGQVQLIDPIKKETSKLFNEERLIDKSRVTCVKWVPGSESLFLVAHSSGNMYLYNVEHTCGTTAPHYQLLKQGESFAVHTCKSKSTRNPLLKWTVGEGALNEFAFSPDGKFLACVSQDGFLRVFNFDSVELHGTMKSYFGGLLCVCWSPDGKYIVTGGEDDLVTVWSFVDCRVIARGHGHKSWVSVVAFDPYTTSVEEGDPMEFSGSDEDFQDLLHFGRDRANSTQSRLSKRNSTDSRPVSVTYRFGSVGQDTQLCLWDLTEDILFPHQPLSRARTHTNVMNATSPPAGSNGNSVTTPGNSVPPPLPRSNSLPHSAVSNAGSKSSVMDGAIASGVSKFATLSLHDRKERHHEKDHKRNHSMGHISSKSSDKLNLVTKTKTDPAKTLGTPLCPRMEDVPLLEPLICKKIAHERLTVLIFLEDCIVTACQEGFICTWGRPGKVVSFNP
UniProt Q96JC1: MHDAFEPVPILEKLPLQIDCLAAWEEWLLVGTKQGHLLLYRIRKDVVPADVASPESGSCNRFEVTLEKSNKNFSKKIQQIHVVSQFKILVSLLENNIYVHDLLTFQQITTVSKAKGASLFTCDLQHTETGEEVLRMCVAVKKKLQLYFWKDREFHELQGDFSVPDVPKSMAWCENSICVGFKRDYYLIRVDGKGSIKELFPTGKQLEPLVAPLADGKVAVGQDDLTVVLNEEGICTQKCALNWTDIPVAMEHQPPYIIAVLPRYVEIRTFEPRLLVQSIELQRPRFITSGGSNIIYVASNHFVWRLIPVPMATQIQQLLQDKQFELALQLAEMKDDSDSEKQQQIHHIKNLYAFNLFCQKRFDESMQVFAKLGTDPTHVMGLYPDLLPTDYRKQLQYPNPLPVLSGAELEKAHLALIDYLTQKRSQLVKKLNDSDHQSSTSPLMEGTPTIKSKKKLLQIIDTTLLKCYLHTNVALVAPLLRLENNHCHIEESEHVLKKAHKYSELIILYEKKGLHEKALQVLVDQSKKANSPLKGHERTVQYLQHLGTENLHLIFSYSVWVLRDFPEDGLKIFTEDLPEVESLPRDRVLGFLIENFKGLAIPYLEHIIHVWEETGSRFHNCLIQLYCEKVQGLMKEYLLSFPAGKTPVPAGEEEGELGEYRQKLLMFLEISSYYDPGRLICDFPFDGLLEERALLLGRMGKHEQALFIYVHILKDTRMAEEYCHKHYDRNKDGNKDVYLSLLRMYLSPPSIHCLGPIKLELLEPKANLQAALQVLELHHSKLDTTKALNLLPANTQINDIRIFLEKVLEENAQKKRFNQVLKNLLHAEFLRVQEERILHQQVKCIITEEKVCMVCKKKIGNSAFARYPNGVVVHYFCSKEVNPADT
UniProt O94967: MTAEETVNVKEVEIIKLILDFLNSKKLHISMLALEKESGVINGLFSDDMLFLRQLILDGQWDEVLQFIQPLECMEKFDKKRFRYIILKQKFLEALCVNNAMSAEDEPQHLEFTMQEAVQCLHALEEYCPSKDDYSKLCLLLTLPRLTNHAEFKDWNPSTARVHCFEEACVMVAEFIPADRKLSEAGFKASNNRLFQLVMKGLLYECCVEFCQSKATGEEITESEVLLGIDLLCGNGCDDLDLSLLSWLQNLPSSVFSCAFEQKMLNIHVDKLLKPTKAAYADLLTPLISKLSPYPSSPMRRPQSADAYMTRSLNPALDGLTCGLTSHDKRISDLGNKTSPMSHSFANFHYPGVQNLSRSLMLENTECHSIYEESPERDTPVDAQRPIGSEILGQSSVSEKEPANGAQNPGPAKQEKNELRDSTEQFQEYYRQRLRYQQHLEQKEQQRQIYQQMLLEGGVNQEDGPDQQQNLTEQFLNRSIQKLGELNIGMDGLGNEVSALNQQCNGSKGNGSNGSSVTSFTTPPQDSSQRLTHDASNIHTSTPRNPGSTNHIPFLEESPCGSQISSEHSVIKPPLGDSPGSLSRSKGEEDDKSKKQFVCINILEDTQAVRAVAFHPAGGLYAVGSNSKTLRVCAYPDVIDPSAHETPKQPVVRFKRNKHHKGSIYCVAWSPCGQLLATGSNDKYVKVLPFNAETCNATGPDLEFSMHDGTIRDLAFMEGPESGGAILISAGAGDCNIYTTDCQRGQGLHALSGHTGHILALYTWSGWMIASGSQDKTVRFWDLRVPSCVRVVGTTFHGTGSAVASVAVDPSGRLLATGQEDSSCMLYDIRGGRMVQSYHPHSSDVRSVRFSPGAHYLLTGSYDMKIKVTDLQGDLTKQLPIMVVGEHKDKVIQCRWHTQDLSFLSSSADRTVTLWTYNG
UniProt Q96FK6: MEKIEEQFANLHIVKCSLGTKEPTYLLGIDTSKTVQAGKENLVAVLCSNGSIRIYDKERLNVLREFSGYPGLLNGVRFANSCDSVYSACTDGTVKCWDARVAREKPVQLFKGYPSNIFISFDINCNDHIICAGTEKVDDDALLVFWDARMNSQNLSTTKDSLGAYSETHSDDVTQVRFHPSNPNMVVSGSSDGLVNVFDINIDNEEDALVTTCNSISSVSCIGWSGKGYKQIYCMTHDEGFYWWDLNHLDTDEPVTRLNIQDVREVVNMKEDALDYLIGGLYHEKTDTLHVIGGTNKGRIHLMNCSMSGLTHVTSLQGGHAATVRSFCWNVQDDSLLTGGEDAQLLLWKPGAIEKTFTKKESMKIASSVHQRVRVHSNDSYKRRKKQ
UniProt P57081: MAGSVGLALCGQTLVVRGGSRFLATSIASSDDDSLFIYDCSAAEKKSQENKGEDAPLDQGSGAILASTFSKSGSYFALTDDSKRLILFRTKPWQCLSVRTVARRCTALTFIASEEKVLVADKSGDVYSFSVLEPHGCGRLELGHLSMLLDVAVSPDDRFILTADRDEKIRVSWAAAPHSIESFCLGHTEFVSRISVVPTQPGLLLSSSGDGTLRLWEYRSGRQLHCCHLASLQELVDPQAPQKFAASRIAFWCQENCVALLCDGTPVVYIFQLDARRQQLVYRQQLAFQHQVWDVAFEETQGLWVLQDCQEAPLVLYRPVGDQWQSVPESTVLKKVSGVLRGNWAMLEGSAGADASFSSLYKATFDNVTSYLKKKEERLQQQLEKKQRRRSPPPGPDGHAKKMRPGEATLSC
UniProt O43379: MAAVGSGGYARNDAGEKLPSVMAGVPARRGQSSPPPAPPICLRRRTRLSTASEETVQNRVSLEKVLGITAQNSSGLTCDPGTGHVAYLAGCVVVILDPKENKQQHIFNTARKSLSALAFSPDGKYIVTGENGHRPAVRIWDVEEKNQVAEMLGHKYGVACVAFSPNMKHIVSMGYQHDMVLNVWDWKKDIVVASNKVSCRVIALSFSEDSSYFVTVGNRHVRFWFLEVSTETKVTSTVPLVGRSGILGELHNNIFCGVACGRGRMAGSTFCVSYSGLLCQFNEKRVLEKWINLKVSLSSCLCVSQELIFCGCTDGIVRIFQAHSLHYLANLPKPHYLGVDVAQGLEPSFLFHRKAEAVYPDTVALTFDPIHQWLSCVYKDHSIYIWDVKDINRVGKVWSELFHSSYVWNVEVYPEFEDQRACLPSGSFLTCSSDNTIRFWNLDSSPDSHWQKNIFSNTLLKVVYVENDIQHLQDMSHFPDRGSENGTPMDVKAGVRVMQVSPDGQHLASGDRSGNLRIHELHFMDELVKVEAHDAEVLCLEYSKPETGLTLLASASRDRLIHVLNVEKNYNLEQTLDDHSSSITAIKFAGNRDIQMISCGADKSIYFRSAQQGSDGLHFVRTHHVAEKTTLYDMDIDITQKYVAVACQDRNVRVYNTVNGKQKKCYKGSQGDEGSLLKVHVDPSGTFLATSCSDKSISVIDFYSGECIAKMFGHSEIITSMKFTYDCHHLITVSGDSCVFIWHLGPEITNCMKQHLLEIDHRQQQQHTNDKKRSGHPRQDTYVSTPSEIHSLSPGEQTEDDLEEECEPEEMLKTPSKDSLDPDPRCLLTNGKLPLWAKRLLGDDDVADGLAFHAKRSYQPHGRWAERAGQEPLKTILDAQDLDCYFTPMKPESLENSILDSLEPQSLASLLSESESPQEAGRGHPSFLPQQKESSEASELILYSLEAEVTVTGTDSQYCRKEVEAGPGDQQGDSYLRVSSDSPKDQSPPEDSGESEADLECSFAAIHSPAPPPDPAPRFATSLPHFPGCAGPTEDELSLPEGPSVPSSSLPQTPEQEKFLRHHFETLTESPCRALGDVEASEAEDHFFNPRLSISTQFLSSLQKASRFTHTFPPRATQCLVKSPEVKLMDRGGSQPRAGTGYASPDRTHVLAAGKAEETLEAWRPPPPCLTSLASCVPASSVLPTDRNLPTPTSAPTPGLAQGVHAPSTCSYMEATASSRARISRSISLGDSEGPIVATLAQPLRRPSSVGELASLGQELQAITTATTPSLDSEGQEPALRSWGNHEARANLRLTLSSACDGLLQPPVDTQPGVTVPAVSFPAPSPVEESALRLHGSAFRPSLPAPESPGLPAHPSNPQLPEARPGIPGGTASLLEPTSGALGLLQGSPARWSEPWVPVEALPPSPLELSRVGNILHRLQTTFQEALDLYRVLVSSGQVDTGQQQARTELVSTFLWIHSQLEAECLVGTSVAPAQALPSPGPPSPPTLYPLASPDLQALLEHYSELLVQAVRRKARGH
UniProt Q9UN37: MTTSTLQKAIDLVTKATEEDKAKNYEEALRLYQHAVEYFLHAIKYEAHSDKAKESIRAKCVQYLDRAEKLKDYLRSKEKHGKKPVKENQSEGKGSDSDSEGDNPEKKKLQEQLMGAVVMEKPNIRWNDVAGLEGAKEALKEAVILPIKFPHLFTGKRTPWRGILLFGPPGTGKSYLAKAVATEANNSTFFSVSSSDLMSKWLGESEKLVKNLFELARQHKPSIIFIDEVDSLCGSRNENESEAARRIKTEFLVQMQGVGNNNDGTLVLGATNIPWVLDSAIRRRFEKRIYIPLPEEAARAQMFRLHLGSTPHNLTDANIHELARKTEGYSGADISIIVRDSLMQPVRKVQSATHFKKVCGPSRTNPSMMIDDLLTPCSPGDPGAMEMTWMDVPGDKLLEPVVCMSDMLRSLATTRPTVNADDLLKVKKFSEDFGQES
UniProt O75083: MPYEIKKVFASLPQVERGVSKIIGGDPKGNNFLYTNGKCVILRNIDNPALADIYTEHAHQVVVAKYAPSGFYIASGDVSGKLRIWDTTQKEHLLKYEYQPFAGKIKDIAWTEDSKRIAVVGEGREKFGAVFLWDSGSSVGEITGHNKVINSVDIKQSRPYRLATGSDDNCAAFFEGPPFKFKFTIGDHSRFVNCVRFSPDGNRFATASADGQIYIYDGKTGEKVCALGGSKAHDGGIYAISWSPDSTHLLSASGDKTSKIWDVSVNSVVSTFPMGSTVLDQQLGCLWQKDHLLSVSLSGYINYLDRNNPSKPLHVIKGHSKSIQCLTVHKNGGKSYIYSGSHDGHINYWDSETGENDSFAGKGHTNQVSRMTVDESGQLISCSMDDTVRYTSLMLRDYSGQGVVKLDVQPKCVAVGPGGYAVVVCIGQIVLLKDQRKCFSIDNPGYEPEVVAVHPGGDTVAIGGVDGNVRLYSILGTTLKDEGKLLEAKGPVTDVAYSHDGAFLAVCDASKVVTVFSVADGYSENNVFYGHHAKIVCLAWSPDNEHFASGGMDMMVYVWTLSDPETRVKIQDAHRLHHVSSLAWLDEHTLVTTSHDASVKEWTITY
UniProt Q86VN1: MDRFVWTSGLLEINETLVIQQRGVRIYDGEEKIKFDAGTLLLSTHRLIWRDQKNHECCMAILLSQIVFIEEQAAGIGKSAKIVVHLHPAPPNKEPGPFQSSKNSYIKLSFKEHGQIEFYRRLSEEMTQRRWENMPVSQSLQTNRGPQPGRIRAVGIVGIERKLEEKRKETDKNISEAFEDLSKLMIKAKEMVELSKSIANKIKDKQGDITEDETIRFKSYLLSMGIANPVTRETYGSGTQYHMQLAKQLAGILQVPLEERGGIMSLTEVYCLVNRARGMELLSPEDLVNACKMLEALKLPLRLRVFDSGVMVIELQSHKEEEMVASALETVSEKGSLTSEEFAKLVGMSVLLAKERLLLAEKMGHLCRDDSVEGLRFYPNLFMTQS

What was measured:
Experiment in all cases: log2 fold change, soluble protein after heating vs DMSO (PISA); higher = thermal stabilisation; K562 lysate, 10 uM; active = over 0.2 and 3.5 SD of the protein, either way, in both replicates (recomputed)
vemurafenib = compound: CCCS(=O)(=O)Nc1ccc(F)c(C(=O)c2c[nH]c3ncc(-c4ccc(Cl)cc4)cc23)c1F [vemurafenib]
Procedure, shortened: (§1)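 K562 pellets were dounce-homogenised in PBS pH 7.4 containing 1 mM MgCl2, and the crude extract, at 1 mg/mL protein, was exposed to 10 μM compound for 30 min. Aliquots were heated for 3 min across 48°C-58°C, pooled, brought to 0.5% NP-40 at 4°C and spun at 21,000xg for 90 min, with the supernatant taken as soluble protein. TMTpro 16plex LC-MS/MS with equalised channel sums quantified that protein. Values are log-two fold changes in thermal stability relative to solvent controls, taken from duplicates.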

[1] = compound: CCCS(=O)(=O)Nc1ccc(F)c(C(=O)c2c[nH]c3ncc(Cl)cc23)c1F
Procedure, shortened: as §1

barasertib = compound: CCN(CCCOc1ccc2c(Nc3cc(CC(=O)Nc4cccc(F)c4)[nH]n3)ncnc2c1)CCOP(=O)(O)O [barasertib]
Procedure, shortened: as §1

[2] = compound: CC[C@@H]1C(=O)N(C)c2cnc(Nc3ccc(C(=O)NC4CCN(C)CC4)cc3OC)nc2N1C1CCCC1
Procedure, shortened: as §1

volasertib = compound: CC[C@@H]1C(=O)N(C)c2cnc(Nc3ccc(C(=O)N[C@H]4CC[C@H](N5CCN(CC6CC6)CC5)CC4)cc3OC)nc2N1C(C)C [volasertib]
Procedure, shortened: as §1

[3] = compound: CCn1c(C(=O)N(C2CC2)C2CC2)cc2c3c(ncn3C)c(Nc3cc(C)n(C)n3)nc21
Procedure, shortened: as §1

[4] = compound: CCn1cc(-c2ccnc3[nH]c(-c4cccc(CN(C)C)c4)cc23)c(-c2ccc(NC(=O)N(C)C)cc2)n1
Procedure, shortened: as §1

[5] = compound: CN1CCC(CNc2ccc3ncc(-c4cccc(OC(F)(F)F)c4)n3n2)CC1
Procedure, shortened: as §1

saracatinib = compound: CN1CCN(CCOc2cc(OC3CCOCC3)c3c(Nc4c(Cl)ccc5c4OCO5)ncnc3c2)CC1 [saracatinib]
Procedure, shortened: as §1

sotrastaurin = compound: CN1CCN(c2nc(C3=C(c4c[nH]c5ccccc45)C(=O)NC3=O)c3ccccc3n2)CC1 [sotrastaurin]
Procedure, shortened: as §1

alvocidib = compound: CN1CC[C@H](c2c(O)cc(O)c3c(=O)cc(-c4ccccc4Cl)oc23)[C@H](O)C1 [alvocidib]
Procedure, shortened: as §1

Tubastatin A = compound: CN1CCc2c(c3ccccc3n2Cc2ccc(C(=O)NO)cc2)C1 [Tubastatin A]
Procedure, shortened: as §1

[6] = compound: CNC(=O)C1=CC=CC=C1NC2=NC(=NC=C2Cl)NC3=C(C=C(C=C3)N4CCOCC4)OC
Procedure, shortened: as §1

defactinib = compound: CNC(=O)c1ccc(Nc2ncc(C(F)(F)F)c(NCc3nccnc3N(C)S(C)(=O)=O)n2)cc1 [defactinib]
Procedure, shortened: as §1

[7] = compound: CNc1nc(-c2ccc3c(N)n[nH]c3c2)cc(N2C[C@@H](C(=O)NC3CCCCC3)CC[C@H]2C)n1
Procedure, shortened: as §1

encorafenib = compound: COC(=O)N[C@@H](C)CNc1nccc(-c2cn(C(C)C)nc2-c2cc(Cl)cc(NS(C)(=O)=O)c2F)n1 [encorafenib]
Procedure, shortened: as §1

[8] = compound: COC(=O)[C@H](CCSC)NC(=O)C1=C(C=C(C=C1)NC[C@H](CS)N)C2=CC=CC=C2
Procedure, shortened: as §1

alisertib = compound: COc1cc(Nc2ncc3c(n2)-c2ccc(Cl)cc2C(c2c(F)cccc2OC)=NC3)ccc1C(=O)O [alisertib]
Procedure, shortened: as §1

[9] = compound: COc1cc2nc(-c3cc(F)ccc3O)nc(N[C@@H]3CNC[C@H]3C(C)(C)O)c2cc1OC
Procedure, shortened: as §1

gefitinib = compound: COc1cc2ncnc(Nc3ccc(F)c(Cl)c3)c2cc1OCCCN1CCOCC1 [gefitinib]
Procedure, shortened: as §1

Row | Target | log2 fold change (vemurafenib) | log2 fold change [1] | log2 fold change (barasertib) | log2 fold change [2] | log2 fold change (volasertib) | log2 fold change [3] | log2 fold change [4] | log2 fold change [5] | log2 fold change (saracatinib) | log2 fold change (sotrastaurin) | log2 fold change (alvocidib) | log2 fold change (Tubastatin A) | log2 fold change [6] | log2 fold change (defactinib) | log2 fold change [7] | log2 fold change (encorafenib) | log2 fold change [8] | log2 fold change (alisertib) | log2 fold change [9] | log2 fold change (gefitinib)
1 | WASF1 (UniProt Q92558) | inactive: -0.012 | inactive: 0.035 | inactive: 0.013 | inactive: -0.039 | inactive: 0.009 | inactive: -0.067 | inactive: -0.052 | inactive: 0.052 | inactive: -0.041 | inactive: 0.023 | inactive: -0.038 | inactive: -0.002 | inactive: -0.026 | inactive: 0.012 | inactive: -0.071 | inactive: 0.054 | inactive: 0.038 | inactive: -0.072 | inactive: -0.024 | inactive: -0.075
2 | VPS37C (UniProt A5D8V6) | inactive: -0.058 | inactive: -0.006 | inactive: 0.115 | inactive: 0.081 | inactive: -0.026 | inactive: -0.027 | inactive: 0.008 | inactive: -0.057 | inactive: 0.038 | inactive: 0.036 | inactive: 0.026 | inactive: 0.064 | inactive: -0.005 | inactive: 0.022 | inactive: 0.033 | inactive: 0.089 | inactive: -0.101 | inactive: 0.057 | inactive: -0.009 | inactive: -0.009
3 | WDR75 (UniProt Q8IWA0) | inactive: -0.005 | inactive: 0.02 | inactive: 0.095 | inactive: -0.157 | inactive: -0.058 | inactive: 0.021 | inactive: 0.031 | inactive: -0.061 | inactive: 0.023 | inactive: 0.004 | inactive: -0.061 | inactive: -0.115 | inactive: 0.026 | inactive: -0.035 | inactive: -0.031 | inactive: 0.038 | inactive: 0.028 | inactive: 0.08 | inactive: -0.078 | inactive: -0.079
4 | VPS45 (UniProt Q9NRW7) | inactive: 0.02 | inactive: 0.029 | inactive: 0.082 | inactive: -0.023 | inactive: -0.065 | inactive: -0.03 | inactive: 0.012 | inactive: -0.017 | inactive: 0.01 | inactive: 0.014 | inactive: 0.002 | inactive: -0.001 | inactive: 0.001 | inactive: -0.012 | inactive: -0.031 | inactive: 0.033 | inactive: 0.01 | inactive: -0.018 | inactive: -0.011 | inactive: 0.002
5 | WDR20 isoform 7 (UniProt Q8TBZ3) | inactive: 0.047 | inactive: 0 | inactive: 0.087 | inactive: 0.054 | inactive: -0.039 | inactive: -0.017 | inactive: 0.039 | inactive: -0.039 | inactive: 0.065 | inactive: -0.036 | inactive: -0.041 | inactive: -0.035 | inactive: 0.02 | inactive: -0.049 | inactive: -0.13 | inactive: 0.078 | inactive: -0.114 | inactive: 0.175 | inactive: -0.002 | inactive: -0.149
6 | VPS39 (UniProt Q96JC1) | inactive: -0.034 | inactive: 0.014 | inactive: 0.022 | inactive: -0.029 | inactive: -0.045 | inactive: 0.001 | active: 0.73 | inactive: -0.151 | inactive: 0.018 | inactive: -0.008 | active: 0.268 | inactive: -0.06 | inactive: 0.036 | inactive: 0.011 | inactive: 0.007 | inactive: 0.043 | inactive: -0.218 | inactive: 0.041 | inactive: 0.026 | inactive: -0.041
7 | WDR47 (UniProt O94967) | inactive: 0.021 | inactive: 0.05 | inactive: 0.049 | inactive: 0.025 | inactive: -0.042 | inactive: 0.095 | inactive: -0.061 | inactive: 0 | inactive: 0.038 | inactive: 0.005 | inactive: 0.054 | inactive: -0.012 | inactive: 0.085 | inactive: 0.019 | inactive: -0.047 | inactive: -0.035 | inactive: -0.002 | inactive: -0.058 | inactive: -0.039 | inactive: -0.002
8 | WDR89 (UniProt Q96FK6) | inactive: -0.147 | inactive: 0.033 | inactive: -0.042 | inactive: 0.024 | inactive: 0.029 | inactive: -0.043 | inactive: -0.091 | inactive: 0.052 | inactive: -0.079 | inactive: -0.034 | inactive: -0.059 | inactive: 0.039 | inactive: -0.005 | inactive: 0.034 | inactive: 0.012 | inactive: 0.07 | inactive: -0.084 | inactive: -0.069 | inactive: 0.054 | inactive: -0.163
9 | WRN (UniProt Q14191) | inactive: -0.032 | inactive: -0.065 | inactive: 0.026 | inactive: -0.032 | inactive: 0.007 | inactive: 0.053 | inactive: -0.052 | inactive: 0.022 | inactive: 0.008 | inactive: 0.031 | inactive: -0.029 | inactive: -0.071 | inactive: -0.007 | inactive: 0.023 | inactive: -0.025 | inactive: 0.016 | inactive: -0.013 | inactive: -0.037 | inactive: 0 | inactive: 0.047
10 | WDR4 (UniProt P57081) | inactive: -0.044 | inactive: 0.001 | inactive: -0.015 | inactive: 0.042 | inactive: -0.011 | inactive: -0.014 | inactive: 0.083 | inactive: -0.001 | inactive: 0.004 | inactive: 0.032 | inactive: -0.012 | inactive: -0.035 | inactive: 0.032 | inactive: -0.027 | inactive: 0.005 | inactive: 0.046 | inactive: -0.1 | inactive: 0.001 | inactive: 0.007 | inactive: -0.008
11 | WDR62 isoform 4 (UniProt O43379) | inactive: 0.004 | inactive: 0.065 | inactive: 0.031 | inactive: -0.063 | inactive: 0 | inactive: 0.003 | inactive: -0.009 | inactive: -0.044 | inactive: 0.04 | inactive: 0.031 | inactive: 0.018 | inactive: -0.132 | inactive: 0.012 | inactive: -0.007 | inactive: 0.048 | inactive: 0.054 | inactive: -0.01 | inactive: 0.005 | inactive: 0.052 | inactive: 0.013
12 | VPS13B (UniProt Q7Z7G8) | inactive: 0.05 | inactive: 0.046 | inactive: -0.036 | inactive: 0.041 | inactive: -0.062 | inactive: 0.029 | inactive: 0.049 | inactive: 0.032 | inactive: 0 | inactive: 0.025 | inactive: -0.125 | inactive: 0.005 | inactive: 0.073 | inactive: -0.062 | inactive: 0.05 | inactive: 0.118 | inactive: -0.01 | inactive: -0.008 | inactive: 0.058 | inactive: 0.048
13 | VPS4A (UniProt Q9UN37) | inactive: 0.096 | inactive: -0.006 | inactive: 0.014 | inactive: -0.063 | inactive: -0.09 | inactive: 0.054 | inactive: -0.12 | inactive: -0.036 | inactive: 0.027 | inactive: 0.056 | inactive: -0.004 | inactive: -0.16 | inactive: 0.025 | inactive: 0.01 | inactive: -0.1 | inactive: -0.004 | inactive: 0.138 | inactive: 0 | inactive: -0.004 | inactive: -0.025
14 | WASH2P (UniProt Q6VEQ5) | inactive: -0.016 | inactive: 0.004 | inactive: 0.011 | inactive: -0.043 | inactive: -0.015 | inactive: 0.02 | inactive: 0.02 | inactive: -0.03 | inactive: -0.013 | inactive: -0.014 | inactive: 0.036 | inactive: 0.01 | inactive: -0.014 | inactive: 0.072 | inactive: -0.012 | inactive: 0.023 | inactive: -0.045 | inactive: -0.019 | inactive: -0.007 | inactive: 0.044
15 | WDR1 (UniProt O75083) | inactive: -0.02 | inactive: -0.008 | inactive: 0.007 | inactive: -0.052 | inactive: -0.013 | inactive: 0.006 | inactive: 0.147 | inactive: -0.071 | inactive: -0.013 | inactive: -0.023 | inactive: 0.047 | inactive: 0.016 | inactive: -0.029 | inactive: -0.008 | inactive: -0.027 | inactive: -0.025 | inactive: 0.053 | inactive: 0.005 | inactive: -0.005 | inactive: -0.038
16 | VPS36 (UniProt Q86VN1) | inactive: 0.003 | inactive: 0.006 | inactive: 0.007 | inactive: -0.014 | inactive: -0.013 | inactive: -0.005 | inactive: -0.125 | inactive: 0.013 | inactive: -0.018 | inactive: 0.047 | inactive: 0 | inactive: 0.009 | inactive: -0.019 | inactive: 0.019 | inactive: 0.005 | inactive: -0.005 | inactive: 0.012 | inactive: -0.006 | inactive: -0.016 | inactive: 0.008
